# The list shows a part of the results.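 How the source made its calls: active = mitochondrial OCR inhibition above 30% at 1 uM; inactive = 30% or less.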 Repeats are few or missing, and single values can be far off.
# Test system: Toxoplasma gondii RH tachyzoites
# Assay: inhibition of mitochondrial O2 consumption rate (% inhibition (relative to pre-injection OCR and atovaquone/antimycin A control)); higher = stronger ETC inhibition
# Settings: 1 µM; injection port (sequential injection order): A
row,Structure (SMILES),inhibition of mitochondrial O2 consumption rate
1,O=C1N(Cc2cc3ccccc3s2)CC2CN(Cc3ccccc3)CCN12 (stereo not drawn),inactive: 2.36
2,CCOC(=O)NC(=O)c1ccsc1NC(=O)c1nc2ccccc2s1,inactive: -17.9
3,COc1cncc(-c2cncc(N3CCN(c4ccncc4)CC3)n2)c1,inactive: -8.75
4,CN(C)CCNC(=O)N1CCCN(c2ncnc3cc(-c4ccccc4)sc23)CC1,inactive: -12.9
5,O=C(NC1CC1)c1ccc(CSCc2ccccc2Cl)o1,inactive: -6.85
6,CC(C(=O)N1CCCC1)N1CCN(S(=O)(=O)c2ccc(C(C)(C)C)cc2)CC1 (stereo not drawn),inactive: -14.4
7,COc1cc(C2=NCCN2)ccc1-c1cn(-c2cccc(C3=NCCN3)c2)nn1,inactive: -3.74

# Same assay, conditions: 1 µM; injection port (sequential injection order): B
row,Structure (SMILES),inhibition of mitochondrial O2 consumption rate
1,COc1cccc(NC(=O)c2c(NC(=O)c3cccnc3)sc3c2CCC3)c1,inactive: -20.3
2,Cc1nc2ccccn2c1C(=O)NCc1ccc(Cl)cc1,inactive: -3.82
3,c1ccc(-c2nc(NC3CCCCC3)cc(C3CC3)n2)nc1,inactive: 25.1
4,CCOc1ccc2cc(-c3nn(CC4CCN(C)CC4)c4ncnc(N)c34)ccc2c1,inactive: 3.66
5,CN1CCN(c2nccc3[nH]c(-c4cccc(F)c4)cc23)CC1,inactive: -4.59
6,Clc1cccc(CO[C@H]2CCc3ccccc3[C@@H]2n2ccnn2)c1,inactive: 4.39
7,O=C(Nc1ccc2c(c1)B(O)OC2)c1ccccc1C(F)(F)F,inactive: 7.91
8,Cc1ncc(-c2ccnc(Nc3ccc(S(C)(=O)=O)cc3)n2)n1C(C)C,inactive: -0.177
9,CC1CC1C(=O)NC1CCN(CC2(c3ccccc3)CCCCC2)CC1 (stereo not drawn),inactive: 5.78
10,NC(CC(=O)c1ccc(Cl)cc1Cl)C(Cl)(Cl)Cl (stereo not drawn),inactive: -0.653
11,FC(F)(F)c1nnc2ccc(Cl)nn12,inactive: -7.5
12,Cc1ccc2c(c1C)NC(=O)C21NN=C(c2ccccc2)S1 (stereo not drawn),inactive: -12.8
13,O=C(NC1CC1)c1ccc(N2CCOc3ccc(Cl)cc32)s1,inactive: 2.37
14,Cc1ccc2cc(C3NC(=O)c4ccccc4N3)c(Cl)nc2c1 (stereo not drawn),inactive: -1.61
15,NCCCC(N)(C(=O)O)C(F)F (stereo not drawn),inactive: 13.5

# Same assay, conditions: 1 µM; injection port (sequential injection order): C
row,Structure (SMILES),inhibition of mitochondrial O2 consumption rate
1,O=C(NCc1cc(Cl)cc(Cl)c1)c1c(C(F)(F)F)nc2ccccn12,inactive: -17.1
2,Cc1cc(NCCc2ccccc2)nc(NC(=N)Nc2ccc(Cl)cc2)n1,inactive: -14.5
3,COc1ccc(S(=O)(=O)Nc2ccc(CN3CCN(C(=O)c4cccc(C#N)c4)CC3)cc2)cc1,inactive: -13.9
4,O=C(N[C@H](Cc1ccccc1)C(=O)Nc1ccccc1N1CCOCC1)c1cccs1,inactive: -6.56
5,CC(C)(C)n1nc(Cc2ccc(F)c(Cl)c2)c2c(N)ncnc21,inactive: -1.48
6,c1ccc(C[C@@H]2CN(c3nccc(Oc4ccc(-n5ccnc5)cc4)n3)CCN2)cc1,inactive: -13.8
7,CCOc1ccccc1C(=O)Nc1cccc(-c2nc3ncccn3c2C)c1,inactive: 3.11
8,CC1=Nc2ccc(Cl)cc2C(O)(c2ccc(C)cc2)N1CCN1CCCCC1 (stereo not drawn),inactive: -14.3
9,CCCCc1ccc(C(=O)Nc2nccc3ccccc23)nc1,inactive: -5.27
10,Nc1nccc2ccc(Oc3ccncc3)cc12,inactive: -36
11,COc1cccc(-c2nc3c(N4CCCC4)cccc3n2CC2CCCN2)n1 (stereo not drawn),inactive: -12.3
12,Nc1nc2ccc(-c3cncc(Oc4ccc(F)cc4)c3)cc2[nH]1,inactive: -19.1
13,c1ccc(Oc2ccc(-c3cc(N4CCNCC4)[nH]n3)cc2)cc1,inactive: -3.18
14,COc1ccc(OC)c(NCc2ccc3nc(N)nc(N)c3c2Cl)c1,inactive: -5.85
15,Cc1cccc(-c2nc(Nc3ccncn3)c3sccc3n2)n1,inactive: -5.03
16,O=C(C1CCN(c2cc(-n3cccc3)ncn2)CC1)N1CCc2ccccc2C1,inactive: -9.4

# Quoted at random: two records from the list.
row,Structure (SMILES),inhibition of mitochondrial O2 consumption rate
5,CC(C)(C)n1nc(Cc2ccc(F)c(Cl)c2)c2c(N)ncnc21,inactive: -1.48
10,Nc1nccc2ccc(Oc3ccncc3)cc12,inactive: -36
